Test results from patent publication US8158806B2, “DAT1” (Department of Biotechnology, priority 2004, dated 2012).

What was measured:
[1] = tested on: SiHa; assay: MTT cell viability assay, SiHa; format: cell-based; settings: Homo sapiens, 48 h, read-out: IC50 values (growth inhibition constants)
Experimental: (§1) The compound DAT1 was tested for its cytotoxicity on human cervical, uterus and colon cancer cell lines and mouse fibrocercoma cells. Cell lines were obtained from ATCC, USA and NCCS, Pune, India. MTT assay, which correlates a fomazan dye formation wife the number of viable cells, was used for this purpose.
(§2) • 3. Cell Viability Assay: MTT assay was used to determine fee number of viable cells upon drug addition. Cells were seeded in microtitre plates (generally 5×10^3 cells per well) and were incubated with different concentrations of the cytotoxic agents for 48 h. Subsequently, 100 μl of MTT solution (0.6 mg/ml) was added per well and incubated at 37° C. for additional 2 h. The amount of formazan salt was quantified in quadruplicates by recording fee absorbance at 570 ran using a Biorad Plate reader. The growth inhibition constants (IC50) were calculated from the semi logarithmic dose response plots using fee nonlinear regression program Origin. […] Polymerization assay: MTP polymerization, in fee presence or absence of DAT1, was measured by the time course of fee turbidity at 37° at 345 nm. […] Tubulin binding: Emission spectra of DAT1 in presence of tubulin were recorded from 400 nm to 600 nm using an excitation wavelength of 374 nm. Excitation and emission bandpasses are 2.5 nm each and the fluorescence values recorded are uncorrected. […]

[2] = tested on: CaSki; assay: MTT cell viability assay, CaSki; format: cell-based; settings: Homo sapiens, Ca-Ski, 48 h, read-out: IC50 values (growth inhibition constants)
Experimental: as §1, §2

COc1cc2c(c(OC)c1OC)-c1ccc(OC)c(=O)cc1[C@@H](NC(C)=O)CC2 [Colchicine]
IC50 [1]: 2.5 µM | IC50 [2]: 0.25 µM
